Assay results: patent US20230183237A1, “COMPETITIVE AND NONCOMPETITIVE INHIBITORS OF THE MUSCARINIC ACETYLCHOLINE RECEPTOR M5” (Vanderbilt University, priority 2020, published 2023)
The structures given here were assigned with low confidence; some may be wrong.

Protein sequences, listed by entry. Tags and fused reporters are not part of them.
UniProt P08912, whole entry: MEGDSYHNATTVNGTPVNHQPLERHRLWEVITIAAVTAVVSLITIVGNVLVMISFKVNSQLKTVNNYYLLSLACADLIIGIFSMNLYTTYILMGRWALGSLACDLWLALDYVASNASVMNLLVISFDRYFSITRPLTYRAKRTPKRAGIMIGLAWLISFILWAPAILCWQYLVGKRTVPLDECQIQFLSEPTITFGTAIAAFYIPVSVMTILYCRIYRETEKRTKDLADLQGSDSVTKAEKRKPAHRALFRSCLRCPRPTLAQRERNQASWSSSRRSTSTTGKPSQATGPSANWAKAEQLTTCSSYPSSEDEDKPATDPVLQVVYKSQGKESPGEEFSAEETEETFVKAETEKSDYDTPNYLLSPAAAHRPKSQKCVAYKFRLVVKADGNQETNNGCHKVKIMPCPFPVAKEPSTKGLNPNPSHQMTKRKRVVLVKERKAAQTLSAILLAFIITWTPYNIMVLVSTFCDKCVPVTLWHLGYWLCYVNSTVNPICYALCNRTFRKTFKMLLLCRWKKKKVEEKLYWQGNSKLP

Target: hM5 (Homo sapiens, UniProt P08912)
Test: Calcium mobilization concentration-response (IC50 vs EC80 acetylcholine), CHO hM5
Type: cell-based
Details: CELL LINE hM5

- IC50 (calcium mobilization, EC80 acetylcholine addition): 63 nM
- EC50 MIN (%) (minimum response, percent of maximum acetylcholine response): 2%
SMILES: Cc1nc2ncnn2cc1C1CCN(S(=O)(=O)c2cnn(C)c2C)CC1
